Measurements: patent publication US20110301078A1, “PREVENTION OF BACTERIAL GROWTH AND BIOFILM FORMATION BY LIGANDS THAT ACT ON CANNABINOIDERGIC SYSTEMS” (priority 2008, published 2011)
At least one compound was matched to its structure with a doubt left.

Test system: MRSA bacteria
Experiment: MRSA bacterial growth and biofilm formation in broth tubes, crystal violet stain (Example 1, FIG. 2)
Type: cell-based, Methicillin-resistant Staphylococcus aureus
Settings: about 5000 CFU/mL, 16-20 hours, 2 mL broth, 35±2° C., CP55,940 and LEA at 30 μm
Description: The broth inoculum was prepared from 18-24 hours old colonies grown on standard agar plates. Approximately four of the fresh colonies were swiped with a sterile cotton Q-tip and then suspended in saline by immersion and light swirling. The turbidity was adjusted to equal that of a 0.5 McFarland turbidity standard using a spectrophotometer (600 nm). The amount corresponded to about 1.5×10^8 CFU/mL, where CFU stands for colony-forming units, and is equivalent to an absorbance at 600 nm equal to 0.132 or a percentage transmission equal to 74.3. […] Sterile 4 mL polystyrene tubes (12×75 mm) with caps were used for this purpose.
MRSA bacteria (about 5000 CFU/mL) were allowed to grow for 16-20 hours in 2 mL broth at 35±2° C. in the presence or absence of various experimental compounds or antibiotics. The amount of biofilm was visualized qualitatively after being stained with crystal violet. Biofilm attached to the side of the tube was stained purple. The compounds CP55,940, LEA, and capsaicin were all tested at 30 μm. In the negative control, no compounds were added. The vehicle controls were made up of the appropriate dilution of the different solvent used to dissolve the experimental compounds, including methanol (MeOH), ethanol (EtOH) or dimethylsulfoxide (DMSO). The experimental compounds tested included CP55,940, noladin ether, O-2050, and linoleyl ethanolamide. […]

## NC[C@H]1O[C@H](O[C@H]2[C@H](O)[C@@H](O[C@H]3O[C@H](CO)[C@@H](O)[C@H](N)[C@H]3O)[C@H](N)C[C@@H]2N)[C@H](O)[C@@H](O)[C@@H]1O [kanamycin, reference compound]
  MRSA growth: Relatively ineffective
